Results from patent US7709645B2, “Pyrrolo-pyridine kinase modulators” (SGX Pharmaceuticals, Inc., priority 2004, dated 2010).
Some results were stated once for a whole list of compounds, not compound by compound. At least one structure is not confirmed: it was looked up by name or label, or the drawing left a doubt.

Molecular target: T1, Abl T315I kinase domain (unphosphorylated) (Mus musculus, UniProt P00520, T315I)
T1 construct: purified and unphosphorylated T315I Abl kinase domain; made in house; host or cells: E. coli BL21(DE3) strains
T1 sequence (P00520 242-493 T315I limits assumed): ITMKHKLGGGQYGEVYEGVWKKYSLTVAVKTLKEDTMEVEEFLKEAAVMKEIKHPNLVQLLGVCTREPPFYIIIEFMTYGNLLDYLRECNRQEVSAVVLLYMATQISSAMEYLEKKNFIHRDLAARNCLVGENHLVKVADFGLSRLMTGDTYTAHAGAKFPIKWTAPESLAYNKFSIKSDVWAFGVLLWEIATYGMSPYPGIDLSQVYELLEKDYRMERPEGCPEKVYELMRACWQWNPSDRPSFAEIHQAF
Test: Abl_T315I Bioassay (c-Abl PK/LDH coupled enzyme assay)
Assay type: biochemical
Settings: 10 μM ATP

SMILES	IC50 [nM]
COc1ccccc1-c1c[nH]c2ncc(-c3ccc(CN4CCCN(C)CC4)c(O)c3)cc12 [AE40]	< 50
COc1cc(-c2cnc3[nH]cc(-c4ccccc4OC)c3c2)ccc1OC1CCN(C)CC1 [AE66]	< 50
